Measurements from publication PMC12693167, “Design, Synthesis and Anticancer Activity of 6-Substituted-1-(3,4,5-trimethoxyphenyl)-1H-indole Against Tubulin Polymerisation” (Molecules, 2025).

Key:
[1] = test system: MDA-MB-231 cells; assay: CCK-8 antiproliferative assay, MDA-MB-231; format: cell-based; settings: Homo sapiens, cell viability (CCK-8), 48 h
Description: (§1) To evaluate the anticancer potential of the synthesized compounds, a panel of six human and murine cancer cell lines representing different tissue origins was selected, including MCF-7 (human breast adenocarcinoma), MDA-MB-231 (human triple-negative breast cancer), A549 (human non-small cell lung cancer), HeLa (human cervical cancer), A375 (human melanoma), and B16-F10 (murine melanoma) (Table 2). The antiproliferative activity of compounds 3a–3p was assessed using the standard CCK-8 assay after 48 h of drug treatment at varying concentrations. DMSO was used as the vehicle control, and all experiments were performed in triplicate to ensure reproducibility.
(§2) Human breast cancer cells (MCF-7), human lung cancer cells (A549), human cervical cancer cells (HeLa), human triple-negative breast cancer cells (MDA-MB-231), and human malignant melanoma cells (A375) were cultured in DMEM. Mouse melanoma cells (B16F10) were maintained in RPMI-1640 medium. […]
(§3) The cytotoxicity of the test compounds was evaluated against MCF-7, A549, HeLa, MDA-MB-231, A375, and B16F10 using the CCK-8 assay. […] The CCK-8 solution was added and incubated for another 1 h, and then, the absorbance was detected with a microplate reader at a wavelength of 450 nm. The IC50 values were calculated by nonlinear regression analysis using GraphPad Prism 8.0.2. […]

[2] = test system: A549 cells; assay: CCK-8 antiproliferative assay, A549; format: cell-based; settings: Homo sapiens, cell viability (CCK-8), 48 h
Description: as §1, §2, §3

[3] = test system: HeLa cells; assay: CCK-8 antiproliferative assay, HeLa; format: cell-based; settings: Homo sapiens, cell viability (CCK-8), 48 h
Description: as §1, §2, §3

[4] = test system: B16-F10 cells; assay: CCK-8 antiproliferative assay, B16-F10; format: cell-based, murine; settings: Mus musculus, cell viability (CCK-8), 48 h
Description: as §1, §2, §3

COc1cc2c(c(OC)c1OC)-c1ccc(OC)c(=O)cc1[C@@H](NC(C)=O)CC2 [Colchicine, reference compound]
IC50 [1]: 480 ± 30 nM | IC50 [2]: 82 ± 6 nM | IC50 [3]: 27 ± 2 nM | IC50 [4]: 13 ± 1 nM
